Test results: patent US20230374534A1
Results are given in words; binding and its absence hold for the method and conditions named. Binding seen in cells or lysates may run through a third protein. Some results given as binding are weak or reduced against the parent protein; the word gives no strength. Values belong to the binder of their own block, whether it stands above or below them.

By UniProt entry, the sequences of proteins in these tests, tags left out. Where a name states a change or a piece, a line headed by the entry shows the natural chain unless it says otherwise.
UniProt Q9SYS6: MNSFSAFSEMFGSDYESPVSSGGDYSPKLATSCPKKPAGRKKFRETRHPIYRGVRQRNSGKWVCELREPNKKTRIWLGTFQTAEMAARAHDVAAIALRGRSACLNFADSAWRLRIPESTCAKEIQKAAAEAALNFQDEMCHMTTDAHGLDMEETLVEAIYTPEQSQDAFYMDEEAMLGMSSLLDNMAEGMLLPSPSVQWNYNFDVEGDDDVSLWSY
UniProt Q9M0L0: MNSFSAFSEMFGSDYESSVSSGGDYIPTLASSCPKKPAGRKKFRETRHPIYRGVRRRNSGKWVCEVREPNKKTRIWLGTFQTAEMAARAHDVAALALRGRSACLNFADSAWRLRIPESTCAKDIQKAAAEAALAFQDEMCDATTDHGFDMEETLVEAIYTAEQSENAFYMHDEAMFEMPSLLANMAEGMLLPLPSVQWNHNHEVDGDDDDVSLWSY
UniProt P93835: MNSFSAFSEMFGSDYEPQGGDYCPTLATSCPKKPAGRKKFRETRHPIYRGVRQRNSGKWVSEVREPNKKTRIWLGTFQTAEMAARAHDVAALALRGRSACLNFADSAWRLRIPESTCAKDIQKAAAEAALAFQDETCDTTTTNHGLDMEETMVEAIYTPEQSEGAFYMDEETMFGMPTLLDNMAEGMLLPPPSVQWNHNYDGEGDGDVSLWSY

What was measured:
[1] = target: CBF2-Myc (from CBF-Myc^OE Arabidopsis plants) (Arabidopsis thaliana) (UniProt Q9SYS6); assay: Co-IP with anti-Myc agarose from CBF-Myc^OE plants, Trx-h2 detected with anti-Trx-h2 antibody (FIG. 1C)
[2] = target: CBF3-Myc (from CBF-Myc^OE Arabidopsis plants) (Arabidopsis thaliana) (UniProt Q9M0L0); assay: as above
[3] = target: His-CBF3 (histidine-tagged C-repeat-binding factor 3), recombinant (Arabidopsis thaliana) (UniProt Q9M0L0); assay: summary of the pull-down, Co-IP and BiFC assays; no affinity value printed
[4] = target: His-CBF2 (histidine-tagged C-repeat-binding factor 2), recombinant (Arabidopsis thaliana) (UniProt Q9SYS6); assay: as above
[5] = target: His-CBF1 (histidine-tagged C-repeat-binding transcription factor 1), recombinant (Arabidopsis thaliana) (UniProt P93835); assay: as above
[6] = target: His-CBF3 (histidine-tagged C-repeat-binding factor 3), recombinant (Arabidopsis thaliana) (UniProt Q9M0L0); assay: in vitro pull-down, purified recombinant Trx-h2 and His-tagged CBFs, western blot (FIG. 1B)
[7] = target: His-CBF2 (histidine-tagged C-repeat-binding factor 2), recombinant (Arabidopsis thaliana) (UniProt Q9SYS6); assay: as above
[8] = target: His-CBF1 (histidine-tagged C-repeat-binding transcription factor 1), recombinant (Arabidopsis thaliana) (UniProt P93835); assay: as above

binding [1]: binds
binding [2]: binds
B1: Trx-h2, endogenous protein in Arabidopsis plants (enzyme)
chain: GGALSTVFGSGEDATAAGTESEPSRVLKFSSSARWQLHFNEIKESNKLLVVDFSASWCGPCRMIEPAIHAMADKFNDVDFVKLDVDELPDVAKEFNVTAMPTFVLVKRGKEIERIIGAKKDELEKKVSKLRA
modifications: myristoylated at Gly2 at 22 °C; demyristoylated at 4 °C

binding [3]: binds
binding [4]: binds
binding [5]: binds
binding [6]: binds
binding [7]: binds
binding [8]: binds
B2: Thioredoxin h2 (Trx-h2), purified recombinant protein (enzyme)
chain: MGGALSTVFGSGEDATAAGTESEPSRVLKFSSSARWQLHFNEIKESNKLLVVDFSASWCGPCRMIEPAIHAMADKFNDVDFVKLDVDELPDVAKEFNVTAMPTFVLVKRGKEIERIIGAKKDELEKKVSKLRA
